According to patent US9315793B2, “Enzymes that synthesize zingiberene” (Board of Trustees of Michigan State University, priority 2011, dated 2016):

test system: LA2167-ZIS zingiberene synthase; assay: GC-MS profile of products synthesized by recombinant LA2167-ZIS supplied with 2Z,6Z-FPP; format: biochemical, Solanum habrochaites; settings: products of E. coli-expressed codon-optimized LA2167-ZIS (SEQ ID NO:3) supplied with 2Z,6Z-farnesyl diphosphate; GC-MS extracted ion 93

Compared with `CC(C)=CCCC(C)c1ccc(C)cc1` (stereo not drawn) [AR-curcumene], `C=C(CCC=C(C)C)[C@@H]1CC=C(C)CC1` [Bisabolene beta] is lower in “Peak Area %” value: 0.986% for the first, 0.107% for the second.

Compared with `C=C(C)C(CO)C/C=C(/C)CCC=C(C)C` (stereo not drawn) [Sesquilavandulol <Z>], `C=C1C=CC(C(C)CCC=C(C)C)CC1` (stereo not drawn) [Sesquiphellandrene beta] is higher in “Peak Area %” value: 0.228% for the first, 0.567% for the second.

Compared with `CC(C)=CCC[C@H](C)[C@@H]1C=CC(C)=CC1` [α-zingiberene], bergamotene is lower in “Peak Area %” value: 97.839% for the first, 0.273% for the second.
